# Changes are numbered by the printed parent chain. This is one part of the list. For some of these results: At the low end of the ranking the order means little. For some of these results: The source does not settle which construct or isoform was used.
# Assays:
# Settings in all cases: yeast three-hybrid, YBZ-1, SC-Leu-His + 0.5 mM 3-AT, 4 days
# [1] = target: T1, PUM1 PUF domain R1-QFR R2-VFQ R7-NPG S863Q + R864F + Q867R + N899V + Y900F + S1079N + N1080P + E1083G (UniProt Q14671)
# T1 sequence: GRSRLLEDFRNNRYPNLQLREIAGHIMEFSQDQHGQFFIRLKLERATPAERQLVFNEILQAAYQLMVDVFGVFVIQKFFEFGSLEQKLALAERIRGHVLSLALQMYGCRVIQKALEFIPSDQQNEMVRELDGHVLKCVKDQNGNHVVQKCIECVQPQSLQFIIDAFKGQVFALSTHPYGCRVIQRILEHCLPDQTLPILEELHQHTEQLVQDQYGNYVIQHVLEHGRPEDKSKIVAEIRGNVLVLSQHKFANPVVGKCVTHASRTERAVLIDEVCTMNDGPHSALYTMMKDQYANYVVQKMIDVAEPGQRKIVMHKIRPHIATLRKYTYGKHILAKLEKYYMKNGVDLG
# [2] = target: T2, PUM1 PUF domain R2-VFQ R3-THE R4-TFR N899V + Y900F + C935T + R936H + Q939E + N971T + H972F + Q975R (UniProt Q14671)
# T2 sequence: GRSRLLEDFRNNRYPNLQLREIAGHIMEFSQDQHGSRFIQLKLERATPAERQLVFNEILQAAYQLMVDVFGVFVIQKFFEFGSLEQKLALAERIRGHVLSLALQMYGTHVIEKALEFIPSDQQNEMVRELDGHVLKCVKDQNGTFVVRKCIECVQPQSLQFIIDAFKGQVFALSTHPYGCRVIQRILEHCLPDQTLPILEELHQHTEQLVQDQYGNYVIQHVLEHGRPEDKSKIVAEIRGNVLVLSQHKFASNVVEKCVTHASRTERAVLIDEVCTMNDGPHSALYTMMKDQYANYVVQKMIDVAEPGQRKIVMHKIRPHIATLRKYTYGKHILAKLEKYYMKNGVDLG
# [3] = target: T3, PUM1 PUF domain R3-THE R4-TFR R7-NPG C935T + R936H + Q939E + N971T + H972F + Q975R + S1079N + N1080P + E1083G (UniProt Q14671)
# T3 sequence: T2 sequence with V72N, F73Y, S252N, N253P, E256G
# [4] = target: T4, PUM1 PUF domain R5-PHQ R6-SWD C1007P + R1008H + N1043S + Y1044W + Q1047D (UniProt Q14671)
# T4 sequence: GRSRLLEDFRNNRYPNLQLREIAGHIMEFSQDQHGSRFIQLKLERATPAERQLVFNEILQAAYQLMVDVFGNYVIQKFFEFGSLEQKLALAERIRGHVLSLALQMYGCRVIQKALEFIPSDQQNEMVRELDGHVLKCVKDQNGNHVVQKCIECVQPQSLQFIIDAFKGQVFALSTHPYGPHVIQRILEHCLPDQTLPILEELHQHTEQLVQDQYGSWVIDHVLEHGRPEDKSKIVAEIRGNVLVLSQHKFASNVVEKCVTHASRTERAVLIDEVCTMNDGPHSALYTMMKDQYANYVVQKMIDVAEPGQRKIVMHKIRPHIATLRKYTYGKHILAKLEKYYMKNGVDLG
# [5] = target: T5, PUM1 PUF domain R3-THE R4-TFR R7-NPG C935T + R936H + Q939E + N971T + H972F + Q975R + S1079N + N1080P + E1083G (Homo sapiens) (UniProt Q14671)
# T5 sequence: T2 sequence with V72N, F73Y, S252N, N253P, E256G
# [6] = target: T6, PUM1 PUF domain R6-SWD R7-NPG N1043S + Y1044W + Q1047D + S1079N + N1080P + E1083G (Homo sapiens) (UniProt Q14671)
# T6 sequence: T4 sequence with P180C, H181R, S252N, N253P, E256G
# [7] = target: T7, PUM1 PUF domain R6-SWD R7-NPG N1043S + Y1044W + Q1047D + S1079N + N1080P + E1083G (UniProt Q14671)
# T7 sequence: T4 sequence with P180C, H181R, S252N, N253P, E256G
Sequence,binding signal (log2 enrichment (interaction score)) [1],binding signal (log2 enrichment (interaction score)) [2],binding signal (log2 enrichment (interaction score)) [3],binding signal (log2 enrichment (interaction score)) [4],binding signal (log2 enrichment (interaction score)) [5],binding signal (log2 enrichment (interaction score)) [6],binding signal (log2 enrichment (interaction score)) [7]
GGCUAGAACUAGUGGAUCCCCCGGCGCCCGGCGGCUCGAGCCCGGGUAAGUUUACGAUGUCUGCAUGCCGCCGGGCGCCAUGCCUGCAGGUCGACUCUAGAAAACAUG,-6.45,-6.06,-2.12,–,–,–,–
GGCUAGAACUAGUGGAUCCCCCGGCGCCCGGCGGCUCGAGCCCGGGUAAGUGCAUAAAGUCUGCAUGCCGCCGGGCGCCAUGCCUGCAGGUCGACUCUAGAAAACAUG,-4.75,-5.35,–,< -6.94,–,–,–
GGCUAGAACUAGUGGAUCCCCCGGCGCCCGGCGGCUCGAGCCCGGGUAAGUUGACACAGUCUGCAUGCCGCCGGGCGCCAUGCCUGCAGGUCGACUCUAGAAAACAUG,< -5.64,-5.31,–,-8.32,–,–,–
GGCUAGAACUAGUGGAUCCCCCGGCGCCCGGCGGCUCGAGCCCGGGUAAGAUUACAACGUCUGCAUGCCGCCGGGCGCCAUGCCUGCAGGUCGACUCUAGAAAACAUG,-4.43,-5.24,–,–,-1.51,–,–
GGCUAGAACUAGUGGAUCCCCCGGCGCCCGGCGGCUCGAGCCCGGGUAAGACUUAGUAGUCUGCAUGCCGCCGGGCGCCAUGCCUGCAGGUCGACUCUAGAAAACAUG,-6.17,-5.6,–,< -7.61,–,–,–
GGCUAGAACUAGUGGAUCCCCCGGCGCCCGGCGGCUCGAGCCCGGGUAAGUUAAAAAAGUCUGCAUGCCGCCGGGCGCCAUGCCUGCAGGUCGACUCUAGAAAACAUG,-5.97,-5.33,–,< -9.37,-1.17,-1.9,–
GGCUAGAACUAGUGGAUCCCCCGGCGCCCGGCGGCUCGAGCCCGGGUAAGUUCCCGUCGUCUGCAUGCCGCCGGGCGCCAUGCCUGCAGGUCGACUCUAGAAAACAUG,-5.18,-5.35,-2.14,–,–,–,–
GGCUAGAACUAGUGGAUCCCCCGGCGCCCGGCGGCUCGAGCCCGGGUAAGAGGUCGUCGUCUGCAUGCCGCCGGGCGCCAUGCCUGCAGGUCGACUCUAGAAAACAUG,< -5.71,-5.08,–,-7.79,–,–,–
GGCUAGAACUAGUGGAUCCCCCGGCGCCCGGCGGCUCGAGCCCGGGUAAGGUGUACAAGUCUGCAUGCCGCCGGGCGCCAUGCCUGCAGGUCGACUCUAGAAAACAUG,-6.13,-5.46,-2.88,–,–,–,–
GGCUAGAACUAGUGGAUCCCCCGGCGCCCGGCGGCUCGAGCCCGGGUAAGAGGUCAGCGUCUGCAUGCCGCCGGGCGCCAUGCCUGCAGGUCGACUCUAGAAAACAUG,-4.26,-5.68,–,-8.51,-1.15,–,-2.19
GGCUAGAACUAGUGGAUCCCCCGGCGCCCGGCGGCUCGAGCCCGGGUAAGUUGCCAUAGUCUGCAUGCCGCCGGGCGCCAUGCCUGCAGGUCGACUCUAGAAAACAUG,< -6.96,-6.31,-2.11,-8.77,–,-1.79,–
GGCUAGAACUAGUGGAUCCCCCGGCGCCCGGCGGCUCGAGCCCGGGUAAGUGUAUGUAGUCUGCAUGCCGCCGGGCGCCAUGCCUGCAGGUCGACUCUAGAAAACAUG,-6.67,-5.42,–,< -8.43,< -1.89,–,–
GGCUAGAACUAGUGGAUCCCCCGGCGCCCGGCGGCUCGAGCCCGGGUAAGUGGUAUGCGUCUGCAUGCCGCCGGGCGCCAUGCCUGCAGGUCGACUCUAGAAAACAUG,-4.66,-4.44,–,< -7.34,–,–,–

# Reference: article PMC8384837
